In article PMC6240210:
Results are given in words; binding and its absence hold for the method and conditions named. Binding seen in cells or lysates may run through a third protein. Some entries that bind do so weakly or less than the wild type.

Protein sequences, listed by entry. Tags and fused reporters are not part of them. Lines headed by an entry give the natural chain unless they say otherwise; changes in a name come on top.
UniProt P31749: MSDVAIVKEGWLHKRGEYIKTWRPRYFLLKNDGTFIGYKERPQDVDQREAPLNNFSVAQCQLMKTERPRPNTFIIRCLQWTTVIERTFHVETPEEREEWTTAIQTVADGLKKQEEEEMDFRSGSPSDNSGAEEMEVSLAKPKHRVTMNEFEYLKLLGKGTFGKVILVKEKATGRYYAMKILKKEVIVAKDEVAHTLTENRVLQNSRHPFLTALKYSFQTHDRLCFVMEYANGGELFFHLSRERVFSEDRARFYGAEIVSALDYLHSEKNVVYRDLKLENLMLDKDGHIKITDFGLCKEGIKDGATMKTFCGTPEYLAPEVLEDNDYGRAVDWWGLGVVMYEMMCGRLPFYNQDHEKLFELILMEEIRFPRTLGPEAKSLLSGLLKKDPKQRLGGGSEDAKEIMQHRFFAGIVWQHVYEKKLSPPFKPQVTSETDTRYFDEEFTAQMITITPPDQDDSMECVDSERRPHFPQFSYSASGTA
UniProt Q9Y2I7: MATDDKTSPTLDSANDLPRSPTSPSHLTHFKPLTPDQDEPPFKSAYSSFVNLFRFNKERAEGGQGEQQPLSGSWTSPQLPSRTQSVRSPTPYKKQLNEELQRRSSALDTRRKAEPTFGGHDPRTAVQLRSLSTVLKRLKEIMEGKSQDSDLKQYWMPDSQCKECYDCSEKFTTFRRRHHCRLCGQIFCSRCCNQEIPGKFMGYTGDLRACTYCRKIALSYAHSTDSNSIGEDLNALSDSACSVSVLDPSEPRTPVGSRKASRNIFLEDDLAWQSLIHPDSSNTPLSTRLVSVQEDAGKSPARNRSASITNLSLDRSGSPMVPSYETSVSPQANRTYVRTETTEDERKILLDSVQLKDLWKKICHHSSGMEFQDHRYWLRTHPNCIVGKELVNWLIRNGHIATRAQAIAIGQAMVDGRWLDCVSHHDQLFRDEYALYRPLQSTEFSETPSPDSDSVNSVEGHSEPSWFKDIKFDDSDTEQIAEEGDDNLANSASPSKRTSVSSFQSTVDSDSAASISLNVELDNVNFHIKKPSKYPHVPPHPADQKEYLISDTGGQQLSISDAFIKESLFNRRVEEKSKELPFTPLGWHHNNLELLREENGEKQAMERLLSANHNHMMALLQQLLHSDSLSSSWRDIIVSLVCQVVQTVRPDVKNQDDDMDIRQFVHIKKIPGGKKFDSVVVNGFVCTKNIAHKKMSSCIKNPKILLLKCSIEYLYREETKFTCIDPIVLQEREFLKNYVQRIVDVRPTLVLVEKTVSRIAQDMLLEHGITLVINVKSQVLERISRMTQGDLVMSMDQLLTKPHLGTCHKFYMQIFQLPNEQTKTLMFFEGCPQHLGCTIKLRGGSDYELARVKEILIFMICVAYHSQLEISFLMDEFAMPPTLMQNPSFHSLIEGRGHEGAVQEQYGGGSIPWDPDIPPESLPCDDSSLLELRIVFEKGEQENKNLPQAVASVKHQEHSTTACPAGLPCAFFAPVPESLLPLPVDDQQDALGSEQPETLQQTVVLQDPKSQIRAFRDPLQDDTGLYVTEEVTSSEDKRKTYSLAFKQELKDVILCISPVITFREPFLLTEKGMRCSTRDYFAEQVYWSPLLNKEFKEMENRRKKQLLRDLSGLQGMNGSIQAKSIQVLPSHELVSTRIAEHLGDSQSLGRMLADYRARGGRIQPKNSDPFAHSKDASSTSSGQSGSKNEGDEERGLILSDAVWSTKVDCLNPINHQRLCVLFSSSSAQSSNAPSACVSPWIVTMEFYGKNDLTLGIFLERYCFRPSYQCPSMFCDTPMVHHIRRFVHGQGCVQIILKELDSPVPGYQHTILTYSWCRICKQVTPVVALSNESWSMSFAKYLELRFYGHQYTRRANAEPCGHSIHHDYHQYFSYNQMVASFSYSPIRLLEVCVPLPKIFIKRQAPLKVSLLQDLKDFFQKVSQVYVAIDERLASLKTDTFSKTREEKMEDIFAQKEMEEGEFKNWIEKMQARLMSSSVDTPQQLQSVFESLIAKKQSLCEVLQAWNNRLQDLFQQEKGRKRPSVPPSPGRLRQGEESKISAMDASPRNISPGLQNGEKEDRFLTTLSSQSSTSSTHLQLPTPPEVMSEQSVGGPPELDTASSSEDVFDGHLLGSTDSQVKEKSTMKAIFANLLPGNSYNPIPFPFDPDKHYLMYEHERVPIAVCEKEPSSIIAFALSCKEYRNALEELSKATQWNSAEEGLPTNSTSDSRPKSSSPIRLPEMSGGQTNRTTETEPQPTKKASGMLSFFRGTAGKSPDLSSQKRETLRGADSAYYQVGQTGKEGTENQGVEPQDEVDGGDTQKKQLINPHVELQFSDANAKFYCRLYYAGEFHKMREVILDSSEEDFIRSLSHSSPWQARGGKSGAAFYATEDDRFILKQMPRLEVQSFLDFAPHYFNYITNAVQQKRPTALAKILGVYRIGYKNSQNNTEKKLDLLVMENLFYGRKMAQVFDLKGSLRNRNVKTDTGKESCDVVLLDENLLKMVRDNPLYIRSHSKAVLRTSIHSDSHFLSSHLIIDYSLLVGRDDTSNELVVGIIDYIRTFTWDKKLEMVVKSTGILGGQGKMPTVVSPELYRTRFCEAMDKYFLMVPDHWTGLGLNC

Molecular target: Akt1 (human (endogenous in MCF-7 and MDA-MB-231)) (UniProt P31749)
Assay: co-IP; lysates of transfected MCF-7 and MDA-MB-231 cells (20 mM Tris-HCl pH 7.4, 100 mM NaCl, 1% NP40); precipitated with anti-Akt1 antibody and protein A/G agarose at 4 °C, SDS-PAGE

| binding | Substance |
| --- | --- |
| binds | WT Flag-PIKfyve (from UniProt Q9Y2I7 1-2098) |
| no binding | S318A mutant PIKfyve (from UniProt Q9Y2I7 1-2098) |
